Holding throughout (settings): whole synthesis, scale 0.03 mmol, HCl
A short description of series [1]: general procedure: Fmoc solid-phase peptide synthesis; Fmoc-L-Tyr-TCP; TBTU/NMM.
Series [2] can be described thus: general procedure: Fmoc solid-phase peptide synthesis; Fmoc-L-Ser(t-Bu)-TCP; TBTU/NMM.
The nature of series [3]: general procedure: Fmoc solid-phase peptide synthesis; Fmoc-L-Trp-TCP; TBTU/NMM.

Ada-Gly-Asp-Tyr had a crude mass in series [1] of 12 mg.

As for Troc-Ada-Gly-Asp-Ser, the crude mass in series [2] is 15 mg. In the case of Troc-Ada-Gly-Asp-Trp, in series [3], the crude mass amounted to 16 mg.

For the origin of these results see patent US20020026034A1 (priority 1995, published 2002).
